{"sequences": {"note": "Protein sequences, listed by entry. Tags and fused reporters are not part of them. Residues count along the entry.", "UniProt P01375, residues 77-233": "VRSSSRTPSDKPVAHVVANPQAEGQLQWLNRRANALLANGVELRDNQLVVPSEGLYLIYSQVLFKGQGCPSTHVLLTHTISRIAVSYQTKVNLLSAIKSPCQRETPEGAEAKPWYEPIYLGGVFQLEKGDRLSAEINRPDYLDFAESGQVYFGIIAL", "UniProt P49137": "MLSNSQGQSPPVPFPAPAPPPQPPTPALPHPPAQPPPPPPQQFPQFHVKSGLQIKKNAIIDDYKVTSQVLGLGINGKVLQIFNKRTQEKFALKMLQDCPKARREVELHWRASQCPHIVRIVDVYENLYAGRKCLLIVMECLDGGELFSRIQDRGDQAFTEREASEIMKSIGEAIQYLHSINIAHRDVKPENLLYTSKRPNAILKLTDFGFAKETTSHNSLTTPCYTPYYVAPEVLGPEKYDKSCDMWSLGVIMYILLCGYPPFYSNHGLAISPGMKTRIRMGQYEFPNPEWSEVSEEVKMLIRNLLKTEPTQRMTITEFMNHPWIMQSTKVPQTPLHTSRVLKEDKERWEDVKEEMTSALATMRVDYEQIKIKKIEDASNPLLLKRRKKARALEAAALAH"}, "source": "paper PMC7815719", "target": "GST-hTNF (residues 77-233) (human) (UniProt P01375)", "experiment": "pull-down; WT and MIB2 KO HeLa cells (similar in HCT116) stimulated with GST-TNF (1 μg/ml), with or without BV6 (0.1 μM); lysed in IP buffer; TNFR-containing complex I precipitated with glutathione-Sepharose overnight at 4 °C; immunoblot; only the target purified", "note": "These are yes or no findings as the source states them, for the method shown. Binding seen in cells or lysates may run through a third protein.", "data": [{"substance": "endogenous MK2 (from UniProt P49137 1-400) (enzyme)", "values": [{"measurement": "binding", "value": "no binding"}]}]}
